Laboratory results from US20160109450A1, “METHOD FOR MONITORING METASTASIS OF CANCER CELLS USING CELLS CULTURED IN THREE DIMENSIONAL COLLAGEN ENVIRONMENT” (Medicinal Bioconvergence Research Center, priority 2013, published 2016).
For at least one compound, name, drawing or mass did not settle the structure.

Key:
Format in all cases: cell-based, human
[1] = test system: MDA-MB-231 cell line; assay: Real-time confocal imaging with GFP-cortactin, three-dimensional collagen gel
[2] = test system: mass type and grape-like type cell lines; assay: Western blotting, various breast cancer cell lines in three-dimensional collagen gel
[3] = test system: MDA-MB-436; assay: as above
[4] = test system: MDA-MB-231 cells; assay: Real-time confocal imaging of mCherry-MT1-MMP (and GFP-cortactin) location
[5] = test system: Hs578T; assay: Immunofluorescence, various breast cancer cell lines in three-dimensional collagen gel; conditions: SP600125 treated
[6] = test system: MDA-MB-231 cell line; assay: Immunofluorescence staining of invadopodia (actin/cortactin), three-dimensional collagen gel; conditions: vs control
[7] = test system: MDA-MB-231 cell line; assay: Type I collagen matrix degradation with DQ-collagen I, real-time monitoring
[8] = test system: MDA-MB-231 cell line; assay: ChIP (chromatin immunoprecipitation) on snail1 and cortactin promoters
Experimental: The cells were then treated with 1.5 M glycine, followed by washing with cold PBS containing protease inhibitor. The fixed cells were loaded in SDS-lysis buffer supplemented with protease/kinase inhibitor, followed by sonication for lysis. The lysed sample proceeded to […] at 13000 rpm for 3 minutes, and the supernatant was transferred into a microcentrifuge tube, followed by sonication again for chromatin fragmentation. Supernatant was obtained by centrifugation, some of which was transferred into input and some of which was reacted with the antibodies of phospho-Ser^63-c-Jun, snail1, and smad 2/3/4 (cell signaling technology, USA) at 4° C. for at least 18 hours. Upon completion of the reaction, the tube was taken out from 4° C., to which sepharose beads coated with protein A and G (1:1), followed by reaction at 4° C. for 4 hours. The tube was then washed with RIPA/150 mM NaCl solution and washed again with RIPA/350 mM NaCl solution. The washed sample was washed again with LiCl washing buffer, which was washed with TE (Tris/EDTA) solution three times. TE solution was added thereto, followed by reaction at 65° C. for 15 hours. On the 3rd day of the reaction, RNase A was added to each input and sample, followed by reaction at 37° C. Proteinase K was added thereto, followed by reaction at 55° C. for 1 hour. Phenol/chloroform (1:1) was added thereto, followed by vortexing and then centrifugation was performed. Upon completion of the centrifugation, supernatant was collected, to which TE/200 mM NaCl and glycogen were added, followed by centrifugation, leading to the ethanol precipitation. The DNA pellet obtained from the centrifugation was naturally dried and then dissolved in sterilized distilled water.
It is well informed that smad has the binding element so called “CAGA” in a three-dimensional collagen gel environment (Dennler et al., 1998). So, it was first examined that such smad binding element was there in snail1 promoter region. […]

[9] = test system: MDA-MB-231 cell line; assay: Cell shape under microscope, MDA-MB-231 in three-dimensional collagen gel; conditions: 50 μM, culture for 3 days, vs control cells
[10] = test system: MDA-MB-231 cell line; assay: Cell shape and snail1 protein in three-dimensional matrigel environment
[11] = test system: MDA-MB-231 cells; assay: Cortactin level with actinomycin D or cyclohexamide (RT-PCR, real-time PCR, Western blotting)
[12] = test system: breast cancer cell line; assay: Collagen degradation by immunofluorescence in three-dimensional collagen gel (FIG. 10A); conditions: vs control
[13] = test system: MDA-MB-231 cell line; assay: RT-PCR of mRNA expression, three-dimensional collagen gel
[14] = test system: MDA-MB-231 cell line; assay: Time-lapse imaging of cell migration, three-dimensional collagen gel; conditions: 50 μM, time-lapse imaging for 20 hours
[15] = test system: MDA-MB-231 cell line; assay: Western blotting of protein expression and phosphorylation, three-dimensional collagen gel
[16] = test system: BT-549; assay: Immunofluorescence, various breast cancer cell lines in three-dimensional collagen gel; conditions: BT-549, SP600125 treated
[17] = test system: MDA-MB-231 cell; assay: EMSA of snail1 / cortactin promoter protein-DNA complex; conditions: 32P-labeled probe, nuclear extract
[18] = 50 μM, 24 hours culture, 4 hour-imaging
[19] = GFP-cortactin and mCherry-MT1-MMP co-expressed
[20] = as the treatment time was longer
[21] = JNK inhibitor treated vs control
[22] = different concentrations of JNK inhibitor

## Oc1c2ccccc2c2c3c(cccc13)N=N2 [SP600125]
[1]
  cell migration: decrease
  cortactin expression: reduction
[2]
  expression of snail1: not observed
[3]; MBA-MB-436
  expression of EMT marker (E-cadherin, α-smooth muscle actin, vimentin): not changed
[3]; MDA-MB-436
  expression of cortactin: reduced
  expression of snail1: increased
[4]; [18]
  MT1-MMP expression: without a big change
  location of the cells: not changed
[4]; 50 μM, vs control
  number of MT1-MMP positive spots in the cell membrane of the front of the cell: smaller
  size of the MT1-MMP positive spot: much bigger
[4]; [19]
  cortactin / MT1-MMP spots around the cell membrane: not observed
  expression location of MT1-MMP: affected
[5]
  acin-colocalized spots: reduced
  cell shape: longer
[6]; immunofluorescence staining
  expressions of actin and cortactin: reduced
  shape of the cells: longer
[6]; line intensity profile and statistical analysis
  formation of invadopodia: suppressed
[7]; actin-enriched spot, vs control
  collagen matrix degradation: not degraded
[7]; mCherry-MT1-MMP transfected cells, 50 mM SP600125
  degradation of collagen I: not observed
[8]; ChIP with anti-pS63 c-Jun antibody
  phosphorylated c-Jun: disappeared
[8]; ChIP with anti-snail1 antibody
  binding of snail1 to cortactin promoter: conjugated to cortactin promoter
[8]; ChIP with smad2, smad3, smad4 antibodies
  conjugation of smad and snail1 promoter region: only confirmed when immunoprecipitation was performed with smad 2 and smad 4 with the inhibition of JNK
[9]
  contact region of the cells and the extracellular matrix: flattened and thinner
  shape of the cells (length): twice as long as the length of the control cells
[10]
  expression of snail1 protein: not changed
  shape of the cells: not changed
[11]; new protein synthesis inhibited by cyclohexamide (CHX), vs control
  expression of cortactin: not changed
[11]; with actinomycin D (ActD), RT-PCR and real-time PCR
  level of cortactin: significantly reduced
[12]
  collagen degradation (blank in green stained collagen): not observed
[13]; [20]
  level of Twist mRNA: increased
  level of cortactin mRNA: reduced
  level of snail1 mRNA: increased
[13]; over treatment time
  expression level of snail2/slug mRNA: not changed
[14]
  cell migration: significant reduction
  migration distance: significant change
[15]; JNK inhibition
  smad2 phosphorylation: increase
[15]; JNK inhibition, protein level
  TGFβ1: increase
  smad2: increase
[15]; [21]
  expression of cortactin: reduced
  expression of snail1: increased
[15]; MDA-MB-231
  expression of EMT marker (E-cadherin, α-smooth muscle actin, vimentin): not changed
[15]; [22]
  cortactin protein expression: down-regulation
  phosphorylations of p38 and ERK: did not change
  snail protein expression: up-regulation
[16]
  acin-colocalized spots: reduced
  cell shape: longer
[17]
  binding of snail1 to cortactin promoter (protein-DNA complex): directly bind to cortactin promoter
